# According to the supplement of paper PMC10849652:
# Protein sequences, listed by entry. Tags and fused reporters are not part of them. Lines headed by an entry give the natural chain unless they say otherwise; changes in a name come on top.
# UniProt Q9C0A0: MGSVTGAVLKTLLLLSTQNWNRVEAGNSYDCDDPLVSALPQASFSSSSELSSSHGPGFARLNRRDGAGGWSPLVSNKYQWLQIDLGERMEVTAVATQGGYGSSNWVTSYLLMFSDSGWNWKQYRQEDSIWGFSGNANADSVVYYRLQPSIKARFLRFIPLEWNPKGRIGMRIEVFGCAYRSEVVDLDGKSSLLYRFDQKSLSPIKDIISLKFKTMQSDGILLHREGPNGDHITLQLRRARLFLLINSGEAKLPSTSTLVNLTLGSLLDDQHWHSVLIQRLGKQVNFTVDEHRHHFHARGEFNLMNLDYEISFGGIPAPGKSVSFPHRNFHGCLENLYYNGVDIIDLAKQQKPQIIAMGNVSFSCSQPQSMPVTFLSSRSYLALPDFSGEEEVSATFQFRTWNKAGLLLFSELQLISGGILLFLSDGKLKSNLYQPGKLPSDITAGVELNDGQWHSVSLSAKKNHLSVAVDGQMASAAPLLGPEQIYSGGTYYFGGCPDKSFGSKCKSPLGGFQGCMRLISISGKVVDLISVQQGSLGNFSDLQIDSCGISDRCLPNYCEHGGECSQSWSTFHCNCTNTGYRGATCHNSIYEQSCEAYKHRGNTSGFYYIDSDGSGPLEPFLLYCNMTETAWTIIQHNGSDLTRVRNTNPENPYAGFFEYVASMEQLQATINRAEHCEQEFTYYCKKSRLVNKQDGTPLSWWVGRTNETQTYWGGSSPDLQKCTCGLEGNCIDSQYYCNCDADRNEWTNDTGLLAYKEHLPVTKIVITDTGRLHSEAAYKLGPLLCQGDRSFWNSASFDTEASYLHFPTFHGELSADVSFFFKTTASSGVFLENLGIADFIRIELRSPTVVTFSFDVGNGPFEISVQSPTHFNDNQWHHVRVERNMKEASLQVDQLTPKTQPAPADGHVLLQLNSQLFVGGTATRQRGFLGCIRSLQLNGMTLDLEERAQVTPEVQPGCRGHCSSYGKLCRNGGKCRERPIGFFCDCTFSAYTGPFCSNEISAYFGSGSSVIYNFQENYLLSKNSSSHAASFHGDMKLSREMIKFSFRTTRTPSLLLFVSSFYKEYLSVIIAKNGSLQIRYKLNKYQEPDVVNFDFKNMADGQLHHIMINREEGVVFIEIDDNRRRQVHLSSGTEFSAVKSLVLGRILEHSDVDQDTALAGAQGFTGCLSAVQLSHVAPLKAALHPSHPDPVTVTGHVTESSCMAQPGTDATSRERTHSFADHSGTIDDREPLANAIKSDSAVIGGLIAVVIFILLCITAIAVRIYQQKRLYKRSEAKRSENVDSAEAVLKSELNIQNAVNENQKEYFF
# UniProt Q9BT09: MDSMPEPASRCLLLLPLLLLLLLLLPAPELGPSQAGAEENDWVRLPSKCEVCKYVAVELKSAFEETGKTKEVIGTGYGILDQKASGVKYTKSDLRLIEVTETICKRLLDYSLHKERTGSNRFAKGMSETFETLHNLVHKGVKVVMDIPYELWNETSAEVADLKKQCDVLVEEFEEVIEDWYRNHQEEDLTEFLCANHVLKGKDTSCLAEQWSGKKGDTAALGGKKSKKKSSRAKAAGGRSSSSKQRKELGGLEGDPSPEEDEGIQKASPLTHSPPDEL
# UniProt Q9ULV3: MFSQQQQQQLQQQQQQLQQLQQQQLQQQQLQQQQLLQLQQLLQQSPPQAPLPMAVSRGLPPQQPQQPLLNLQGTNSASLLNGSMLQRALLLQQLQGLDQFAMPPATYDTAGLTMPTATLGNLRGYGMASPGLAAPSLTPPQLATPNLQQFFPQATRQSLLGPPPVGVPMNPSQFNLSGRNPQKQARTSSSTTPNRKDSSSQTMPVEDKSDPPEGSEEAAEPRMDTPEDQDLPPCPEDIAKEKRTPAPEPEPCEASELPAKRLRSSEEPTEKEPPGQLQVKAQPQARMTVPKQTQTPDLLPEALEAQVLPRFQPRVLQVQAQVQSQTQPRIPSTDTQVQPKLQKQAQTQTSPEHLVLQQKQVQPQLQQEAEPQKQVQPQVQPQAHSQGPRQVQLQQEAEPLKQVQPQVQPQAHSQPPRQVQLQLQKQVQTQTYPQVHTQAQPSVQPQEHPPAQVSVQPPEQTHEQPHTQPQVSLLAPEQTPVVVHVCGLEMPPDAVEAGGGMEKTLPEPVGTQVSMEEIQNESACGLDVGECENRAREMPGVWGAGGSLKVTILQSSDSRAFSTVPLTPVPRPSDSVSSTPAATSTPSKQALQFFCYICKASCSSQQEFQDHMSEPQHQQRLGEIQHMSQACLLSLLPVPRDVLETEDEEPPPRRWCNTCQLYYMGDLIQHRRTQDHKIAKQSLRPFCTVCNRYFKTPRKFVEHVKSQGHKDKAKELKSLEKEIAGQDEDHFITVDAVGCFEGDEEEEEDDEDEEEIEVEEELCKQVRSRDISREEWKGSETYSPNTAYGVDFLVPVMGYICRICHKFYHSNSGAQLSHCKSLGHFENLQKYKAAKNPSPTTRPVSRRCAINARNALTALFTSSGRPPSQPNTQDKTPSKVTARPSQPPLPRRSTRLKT
# UniProt P06732: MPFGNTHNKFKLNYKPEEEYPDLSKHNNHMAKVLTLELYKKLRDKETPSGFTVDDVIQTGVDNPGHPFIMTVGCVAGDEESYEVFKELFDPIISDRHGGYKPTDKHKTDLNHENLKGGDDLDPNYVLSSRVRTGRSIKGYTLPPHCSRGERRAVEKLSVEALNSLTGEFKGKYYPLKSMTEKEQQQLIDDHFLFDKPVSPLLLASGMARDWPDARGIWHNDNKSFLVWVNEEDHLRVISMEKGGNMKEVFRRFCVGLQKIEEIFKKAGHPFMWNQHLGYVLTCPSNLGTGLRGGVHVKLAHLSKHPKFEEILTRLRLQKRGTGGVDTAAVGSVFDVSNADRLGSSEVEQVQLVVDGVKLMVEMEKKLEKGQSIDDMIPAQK
# UniProt Q96MX0: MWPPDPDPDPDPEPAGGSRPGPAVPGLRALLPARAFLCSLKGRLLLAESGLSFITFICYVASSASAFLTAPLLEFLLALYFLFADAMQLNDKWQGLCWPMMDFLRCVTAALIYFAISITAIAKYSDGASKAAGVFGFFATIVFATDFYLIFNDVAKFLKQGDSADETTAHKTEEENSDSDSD
# UniProt Q9NYJ1, whole entry, looked up: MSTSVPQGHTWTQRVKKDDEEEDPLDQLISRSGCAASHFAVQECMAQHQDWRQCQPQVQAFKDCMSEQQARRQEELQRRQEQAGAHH
# UniProt P30085: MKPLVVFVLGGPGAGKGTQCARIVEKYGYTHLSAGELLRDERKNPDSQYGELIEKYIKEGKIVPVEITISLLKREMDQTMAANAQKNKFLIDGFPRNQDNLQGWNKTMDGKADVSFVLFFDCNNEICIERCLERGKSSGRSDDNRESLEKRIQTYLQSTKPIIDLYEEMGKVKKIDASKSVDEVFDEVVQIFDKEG
# UniProt Q7Z7K0: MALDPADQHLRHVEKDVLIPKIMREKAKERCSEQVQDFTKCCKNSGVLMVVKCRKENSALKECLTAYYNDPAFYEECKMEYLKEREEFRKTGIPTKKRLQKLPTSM
# UniProt Q99439: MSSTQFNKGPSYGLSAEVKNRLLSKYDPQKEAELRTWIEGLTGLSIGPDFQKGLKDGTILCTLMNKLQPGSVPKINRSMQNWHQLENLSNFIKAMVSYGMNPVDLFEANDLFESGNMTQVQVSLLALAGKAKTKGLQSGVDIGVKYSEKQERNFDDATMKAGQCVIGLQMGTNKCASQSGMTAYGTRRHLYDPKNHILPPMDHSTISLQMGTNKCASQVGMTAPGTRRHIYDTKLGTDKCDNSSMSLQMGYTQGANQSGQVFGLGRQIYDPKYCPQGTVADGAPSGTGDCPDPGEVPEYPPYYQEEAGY
# UniProt Q5EBM0: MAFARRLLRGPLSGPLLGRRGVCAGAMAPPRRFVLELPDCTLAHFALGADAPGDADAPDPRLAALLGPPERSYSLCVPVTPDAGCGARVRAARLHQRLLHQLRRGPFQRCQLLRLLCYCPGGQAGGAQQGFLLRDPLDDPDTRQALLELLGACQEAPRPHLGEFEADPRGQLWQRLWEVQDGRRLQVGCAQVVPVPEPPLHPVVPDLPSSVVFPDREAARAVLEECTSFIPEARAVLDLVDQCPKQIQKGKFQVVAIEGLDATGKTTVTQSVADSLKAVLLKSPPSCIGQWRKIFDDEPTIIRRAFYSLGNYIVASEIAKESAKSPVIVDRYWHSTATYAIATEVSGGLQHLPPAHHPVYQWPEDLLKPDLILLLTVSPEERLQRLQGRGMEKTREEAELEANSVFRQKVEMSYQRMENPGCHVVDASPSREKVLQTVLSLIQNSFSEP
# UniProt A5YKK6, whole entry, looked up: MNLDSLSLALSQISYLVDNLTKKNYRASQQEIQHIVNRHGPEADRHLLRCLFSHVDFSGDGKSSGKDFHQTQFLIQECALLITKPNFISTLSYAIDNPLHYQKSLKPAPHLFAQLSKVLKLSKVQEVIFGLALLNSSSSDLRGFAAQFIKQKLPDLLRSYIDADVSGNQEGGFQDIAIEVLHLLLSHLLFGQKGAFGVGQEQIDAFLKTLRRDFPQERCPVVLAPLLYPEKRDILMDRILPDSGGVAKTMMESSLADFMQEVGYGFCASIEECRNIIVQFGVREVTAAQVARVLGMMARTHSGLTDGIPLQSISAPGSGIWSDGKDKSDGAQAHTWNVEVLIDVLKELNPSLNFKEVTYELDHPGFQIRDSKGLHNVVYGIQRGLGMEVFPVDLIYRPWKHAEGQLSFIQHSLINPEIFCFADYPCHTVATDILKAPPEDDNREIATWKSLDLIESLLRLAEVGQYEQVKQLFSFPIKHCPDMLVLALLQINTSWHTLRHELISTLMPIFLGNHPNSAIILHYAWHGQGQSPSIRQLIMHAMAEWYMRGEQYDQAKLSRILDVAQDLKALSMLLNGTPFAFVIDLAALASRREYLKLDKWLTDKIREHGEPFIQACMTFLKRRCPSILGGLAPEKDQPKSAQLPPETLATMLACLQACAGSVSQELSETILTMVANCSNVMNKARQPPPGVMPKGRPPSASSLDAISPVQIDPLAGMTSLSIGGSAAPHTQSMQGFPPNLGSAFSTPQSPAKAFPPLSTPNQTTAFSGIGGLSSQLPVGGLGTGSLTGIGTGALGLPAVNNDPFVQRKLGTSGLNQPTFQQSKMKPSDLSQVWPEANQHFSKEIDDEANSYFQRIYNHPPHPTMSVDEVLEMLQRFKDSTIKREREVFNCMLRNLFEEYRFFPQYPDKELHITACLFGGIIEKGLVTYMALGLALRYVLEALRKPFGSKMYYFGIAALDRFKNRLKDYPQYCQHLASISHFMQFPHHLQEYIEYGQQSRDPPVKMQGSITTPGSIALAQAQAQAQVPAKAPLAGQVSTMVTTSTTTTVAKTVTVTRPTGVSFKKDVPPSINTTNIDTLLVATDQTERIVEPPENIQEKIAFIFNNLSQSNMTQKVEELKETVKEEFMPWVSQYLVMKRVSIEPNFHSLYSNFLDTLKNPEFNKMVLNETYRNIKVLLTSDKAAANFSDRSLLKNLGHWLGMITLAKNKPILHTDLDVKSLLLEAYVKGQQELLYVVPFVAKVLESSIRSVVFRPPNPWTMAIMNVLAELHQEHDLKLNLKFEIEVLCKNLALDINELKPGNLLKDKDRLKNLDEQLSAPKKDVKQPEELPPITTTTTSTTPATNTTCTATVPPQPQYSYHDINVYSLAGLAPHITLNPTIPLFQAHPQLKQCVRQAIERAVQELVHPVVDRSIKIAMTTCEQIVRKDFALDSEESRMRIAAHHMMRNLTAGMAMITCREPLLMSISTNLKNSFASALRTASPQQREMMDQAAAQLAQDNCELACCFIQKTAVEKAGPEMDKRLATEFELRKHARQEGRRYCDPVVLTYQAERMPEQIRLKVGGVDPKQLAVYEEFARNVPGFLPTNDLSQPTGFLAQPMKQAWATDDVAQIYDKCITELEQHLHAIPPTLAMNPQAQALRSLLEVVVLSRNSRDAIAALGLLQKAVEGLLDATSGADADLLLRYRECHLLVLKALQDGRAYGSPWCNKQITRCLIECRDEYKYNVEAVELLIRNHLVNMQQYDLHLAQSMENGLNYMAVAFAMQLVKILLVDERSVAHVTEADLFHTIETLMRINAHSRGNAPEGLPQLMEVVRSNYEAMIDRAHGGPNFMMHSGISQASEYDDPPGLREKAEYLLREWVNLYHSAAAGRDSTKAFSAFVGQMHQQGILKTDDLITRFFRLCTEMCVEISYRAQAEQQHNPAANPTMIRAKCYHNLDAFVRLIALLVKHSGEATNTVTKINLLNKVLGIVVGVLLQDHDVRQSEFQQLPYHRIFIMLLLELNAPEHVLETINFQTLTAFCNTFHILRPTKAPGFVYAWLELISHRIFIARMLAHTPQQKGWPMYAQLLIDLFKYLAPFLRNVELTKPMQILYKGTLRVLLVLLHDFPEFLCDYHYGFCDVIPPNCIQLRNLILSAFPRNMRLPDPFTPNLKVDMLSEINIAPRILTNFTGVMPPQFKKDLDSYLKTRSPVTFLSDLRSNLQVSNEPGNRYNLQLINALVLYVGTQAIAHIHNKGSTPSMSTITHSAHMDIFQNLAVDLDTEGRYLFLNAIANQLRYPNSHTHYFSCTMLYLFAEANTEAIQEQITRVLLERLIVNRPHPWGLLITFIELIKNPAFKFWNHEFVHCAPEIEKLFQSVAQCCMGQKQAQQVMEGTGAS
# Some of the results follow.
# Key:
# Experiment in all cases: log2 fold change, soluble protein after heating vs DMSO (PISA); higher = thermal stabilisation; K562 cells, 10 uM, 30 min; active = over 0.2 and 3.5 SD of the protein, either way, in both replicates (recomputed)
# [1] = compound: COC1=CC=C(C=C1)CN2C=CC3=C2C=C(C=C3)C(=O)NO
# Summary of the method: (§1)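 For each measurement, 10 μM compound was applied for 30 min to K562 cells at 2×10^6 cells/mL. Aliquots were heated for 3 min across 48°C-58°C, pooled, and extracted in PBS with 0.5% NP-40 at 4°C; the supernatant after 21,000xg for 90 min was soluble protein. This was quantified by TMTpro 16plex LC-MS/MS with channel sums equalised, and thermal stability was reported relative to control samples from duplicates, on a log2 fold-change scale.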
# filanesib = compound: CON(C)C(=O)N1N=C(c2cc(F)ccc2F)S[C@@]1(CCCN)c1ccccc1 [filanesib]
# Summary of the method: as §1
# zotarolimus = compound: CO[C@H]1C[C@@H]2CC[C@@H](C)[C@@](O)(O2)C(=O)C(=O)N2CCCC[C@H]2C(=O)O[C@H]([C@H](C)C[C@@H]2CC[C@H](n3cnnn3)[C@H](OC)C2)CC(=O)[C@H](C)/C=C(\C)[C@@H](O)[C@@H](OC)C(=O)[C@H](C)C[C@H](C)/C=C/C=C/C=C/1C [zotarolimus]
# Summary of the method: as §1
# idasanutlin = compound: COc1cc(C(=O)O)ccc1NC(=O)[C@@H]1N[C@@H](CC(C)(C)C)[C@](C#N)(c2ccc(Cl)cc2F)[C@H]1c1cccc(Cl)c1F [idasanutlin]
# Summary of the method: as §1
# alisertib = compound: COc1cc(Nc2ncc3c(n2)-c2ccc(Cl)cc2C(c2c(F)cccc2OC)=NC3)ccc1C(=O)O [alisertib]
# Summary of the method: as §1
# [2] = compound: COc1cc2nc(-c3cc(F)ccc3O)nc(N[C@@H]3CNC[C@H]3C(C)(C)O)c2cc1OC
# Summary of the method: as §1
# gefitinib = compound: COc1cc2ncnc(Nc3ccc(F)c(Cl)c3)c2cc1OCCCN1CCOCC1 [gefitinib]
# Summary of the method: as §1
# [3] = compound: COc1cccc2cc(-c3nc([C@H]4CC[C@H](C(=O)O)CC4)n4ncnc(N)c34)[nH]c12
# Summary of the method: as §1
# lapatinib = compound: CS(=O)(=O)CCNCc1ccc(-c2ccc3ncnc(Nc4ccc(OCc5cccc(F)c5)c(Cl)c4)c3c2)o1 [lapatinib]
# Summary of the method: as §1
# pictilisib = compound: CS(=O)(=O)N1CCN(Cc2cc3nc(-c4cccc5[nH]ncc45)nc(N4CCOCC4)c3s2)CC1 [pictilisib]
# Summary of the method: as §1
Target,log2 fold change [1],log2 fold change (filanesib),log2 fold change (zotarolimus),log2 fold change (idasanutlin),log2 fold change (alisertib),log2 fold change [2],log2 fold change (gefitinib),log2 fold change [3],log2 fold change (lapatinib),log2 fold change (pictilisib)
CNOT3 (UniProt O75175),inactive: -0.037,inactive: 0.023,inactive: 0.014,inactive: 0.008,inactive: -0.001,inactive: 0,inactive: -0.044,inactive: -0.046,inactive: 0.025,inactive: 0.014
CISD3 (UniProt P0C7P0),inactive: -0.063,inactive: -0.166,inactive: 0.145,inactive: 0.074,inactive: 0.098,inactive: -0.018,inactive: 0.078,inactive: 0.102,inactive: 0.005,inactive: 0.147
CNTNAP4 (UniProt Q9C0A0),inactive: -0.231,inactive: 0.463,inactive: 0,inactive: 0.187,inactive: -0.111,inactive: -0.083,inactive: -0.014,inactive: -0.121,inactive: 0.014,inactive: -0.218
CNPY3 (UniProt Q9BT09),inactive: -0.04,inactive: -0.014,inactive: -0.031,inactive: -0.022,inactive: -0.023,inactive: 0.001,inactive: -0.008,inactive: 0.029,inactive: -0.057,inactive: 0.056
CIZ1 (UniProt Q9ULV3),inactive: 0.039,inactive: 0.04,inactive: -0.006,inactive: 0.054,inactive: -0.042,inactive: -0.106,inactive: -0.099,inactive: 0.034,inactive: 0.025,inactive: 0.05
CMTR1 (UniProt Q8N1G2),active: -0.337,inactive: 0.001,inactive: -0.013,inactive: -0.052,inactive: -0.026,inactive: 0.065,inactive: 0.025,inactive: 0.017,inactive: -0.012,inactive: 0.009
CNNM4 (UniProt Q6P4Q7),inactive: -0.065,inactive: -0.001,inactive: 0.031,inactive: 0.06,inactive: -0.076,inactive: 0.231,inactive: -0.112,inactive: 0.118,inactive: 0.005,inactive: 0.005
CISD1 (UniProt Q9NZ45),inactive: 0.018,inactive: -0.03,inactive: 0.028,inactive: 0.074,inactive: -0.003,inactive: 0,inactive: -0.003,inactive: 0.041,inactive: -0.024,inactive: 0.035
CNOT2 (UniProt Q9NZN8),inactive: -0.006,inactive: 0.006,inactive: 0.014,inactive: 0.005,inactive: -0.01,inactive: 0.021,inactive: 0.017,inactive: -0.021,inactive: 0.048,inactive: 0.04
CKM (UniProt P06732),inactive: 0.165,inactive: -0.182,inactive: -0.008,inactive: -0.025,inactive: -0.006,inactive: -0.073,inactive: -0.055,inactive: 0.132,inactive: 0,inactive: 0.087
CMTM3 (UniProt Q96MX0),inactive: -0.122,inactive: 0.105,inactive: -0.075,inactive: -0.045,inactive: -0.069,inactive: -0.018,inactive: 0.021,inactive: 0.035,inactive: -0.062,inactive: -0.091
COA4 isoform 2 (UniProt Q9NYJ1),inactive: 0.025,inactive: 0.124,inactive: 0.041,inactive: -0.051,inactive: -0.094,inactive: -0.114,inactive: 0.019,inactive: 0.051,inactive: -0.067,inactive: 0.04
CMAS (UniProt Q8NFW8),inactive: -0.075,inactive: 0.248,inactive: 0.004,inactive: 0.06,inactive: 0,inactive: 0.037,inactive: -0.046,inactive: -0.037,inactive: 0.056,inactive: -0.029
COA6 isoform 2 (UniProt Q5JTJ3),inactive: 0.02,inactive: -0.029,inactive: 0.019,inactive: -0.052,inactive: 0.002,inactive: -0.042,inactive: -0.003,inactive: 0.022,inactive: -0.017,inactive: -0.006
CMPK1 (UniProt P30085),inactive: -0.01,inactive: -0.029,inactive: 0.007,inactive: -0.054,inactive: -0.027,inactive: 0.002,inactive: -0.035,inactive: 0.095,inactive: -0.066,inactive: 0.094
CMC1 (UniProt Q7Z7K0),inactive: -0.035,inactive: -0.032,inactive: 0.026,inactive: 0.11,inactive: -0.112,inactive: -0.084,inactive: 0.046,inactive: 0.02,inactive: 0.031,inactive: -0.217
CKB (UniProt P12277),inactive: -0.031,inactive: -0.097,inactive: 0.061,inactive: -0.047,inactive: -0.093,inactive: -0.007,inactive: 0.002,inactive: 0.01,inactive: 0.016,inactive: 0.022
CKMT1A (UniProt P12532),inactive: -0.028,inactive: 0.024,inactive: -0.036,inactive: -0.005,inactive: -0.021,inactive: 0.045,inactive: 0.009,inactive: -0.051,inactive: -0.027,inactive: 0.064
COCH (UniProt O43405),inactive: -0.018,inactive: 0.024,inactive: -0.018,inactive: 0.077,inactive: -0.063,inactive: -0.144,inactive: 0.131,inactive: -0.078,inactive: 0.049,inactive: 0.001
CNN2 (UniProt Q99439),inactive: -0.008,inactive: -0.058,inactive: -0.002,inactive: -0.029,inactive: -0.007,inactive: 0.021,inactive: 0.012,inactive: -0.065,inactive: -0.041,inactive: -0.054
CIAO3 (UniProt Q9H6Q4),inactive: 0.028,inactive: -0.031,inactive: 0.025,inactive: -0.031,inactive: -0.006,inactive: 0.03,inactive: -0.004,inactive: 0.101,inactive: -0.036,inactive: 0.133
CMPK2 (UniProt Q5EBM0),inactive: 0.018,inactive: 0.01,inactive: 0.004,inactive: -0.06,inactive: 0.117,inactive: 0.04,inactive: -0.024,inactive: 0.058,inactive: 0.014,inactive: 0.091
CNOT1 (UniProt A5YKK6),inactive: 0.002,inactive: -0.019,inactive: 0.02,inactive: -0.032,inactive: -0.022,inactive: 0.053,inactive: -0.021,inactive: -0.031,inactive: 0.02,inactive: -0.046
CINP isoform 3 (UniProt Q9BW66),inactive: 0.036,inactive: 0.021,inactive: -0.019,inactive: 0.002,inactive: -0.033,inactive: -0.02,inactive: 0.043,inactive: 0.04,inactive: 0.003,inactive: -0.009

# Some values from the results shown.
# CNPY3 (UniProt Q9BT09) | log2 fold change (zotarolimus): inactive: -0.031
# CNOT1 (UniProt A5YKK6) | log2 fold change (gefitinib): inactive: -0.021
